Test results: patent US20040235717A1, “Suppression of androgen receptor transactivation through new pathways to ar and ar coactivators and repressors” (priority 2001, published 2004)
These are yes or no findings as the source states them, for the method shown. Binding seen in cells or lysates may run through a third protein. Some results given as binding are weak or reduced against the parent protein; the word gives no strength. Blank lines part the entries; values can stand above or below the substance they belong to.

Sequences of proteins named here, by UniProt entry; tags and fusion partners are left off. A change or cut given only in a name is not applied to a line headed by its entry.
UniProt P84022: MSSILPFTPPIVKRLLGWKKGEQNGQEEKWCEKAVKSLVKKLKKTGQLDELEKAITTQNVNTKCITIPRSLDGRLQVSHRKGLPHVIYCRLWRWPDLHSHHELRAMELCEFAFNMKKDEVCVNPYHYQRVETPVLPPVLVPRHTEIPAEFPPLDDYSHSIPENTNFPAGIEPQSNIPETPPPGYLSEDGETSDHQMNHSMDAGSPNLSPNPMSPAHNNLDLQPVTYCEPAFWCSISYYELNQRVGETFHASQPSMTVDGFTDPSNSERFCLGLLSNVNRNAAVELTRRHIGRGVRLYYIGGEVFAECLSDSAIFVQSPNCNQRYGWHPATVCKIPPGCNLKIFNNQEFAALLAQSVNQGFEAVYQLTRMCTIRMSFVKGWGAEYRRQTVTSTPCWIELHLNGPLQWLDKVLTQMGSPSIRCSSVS
UniProt Q13485: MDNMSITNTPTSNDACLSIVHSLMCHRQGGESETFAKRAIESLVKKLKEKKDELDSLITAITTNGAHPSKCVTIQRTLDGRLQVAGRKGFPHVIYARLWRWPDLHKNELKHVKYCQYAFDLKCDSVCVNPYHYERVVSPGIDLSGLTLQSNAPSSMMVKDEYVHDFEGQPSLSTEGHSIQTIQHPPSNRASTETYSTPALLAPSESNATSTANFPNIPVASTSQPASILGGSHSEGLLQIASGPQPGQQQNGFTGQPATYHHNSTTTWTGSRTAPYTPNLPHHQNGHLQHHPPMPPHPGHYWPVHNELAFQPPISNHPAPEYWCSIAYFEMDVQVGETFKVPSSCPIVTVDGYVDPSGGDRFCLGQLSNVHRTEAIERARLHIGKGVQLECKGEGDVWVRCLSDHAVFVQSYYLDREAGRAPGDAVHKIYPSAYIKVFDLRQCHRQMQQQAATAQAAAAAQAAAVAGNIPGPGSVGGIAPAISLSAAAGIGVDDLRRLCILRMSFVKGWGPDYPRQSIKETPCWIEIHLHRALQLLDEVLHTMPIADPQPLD
UniProt P10275: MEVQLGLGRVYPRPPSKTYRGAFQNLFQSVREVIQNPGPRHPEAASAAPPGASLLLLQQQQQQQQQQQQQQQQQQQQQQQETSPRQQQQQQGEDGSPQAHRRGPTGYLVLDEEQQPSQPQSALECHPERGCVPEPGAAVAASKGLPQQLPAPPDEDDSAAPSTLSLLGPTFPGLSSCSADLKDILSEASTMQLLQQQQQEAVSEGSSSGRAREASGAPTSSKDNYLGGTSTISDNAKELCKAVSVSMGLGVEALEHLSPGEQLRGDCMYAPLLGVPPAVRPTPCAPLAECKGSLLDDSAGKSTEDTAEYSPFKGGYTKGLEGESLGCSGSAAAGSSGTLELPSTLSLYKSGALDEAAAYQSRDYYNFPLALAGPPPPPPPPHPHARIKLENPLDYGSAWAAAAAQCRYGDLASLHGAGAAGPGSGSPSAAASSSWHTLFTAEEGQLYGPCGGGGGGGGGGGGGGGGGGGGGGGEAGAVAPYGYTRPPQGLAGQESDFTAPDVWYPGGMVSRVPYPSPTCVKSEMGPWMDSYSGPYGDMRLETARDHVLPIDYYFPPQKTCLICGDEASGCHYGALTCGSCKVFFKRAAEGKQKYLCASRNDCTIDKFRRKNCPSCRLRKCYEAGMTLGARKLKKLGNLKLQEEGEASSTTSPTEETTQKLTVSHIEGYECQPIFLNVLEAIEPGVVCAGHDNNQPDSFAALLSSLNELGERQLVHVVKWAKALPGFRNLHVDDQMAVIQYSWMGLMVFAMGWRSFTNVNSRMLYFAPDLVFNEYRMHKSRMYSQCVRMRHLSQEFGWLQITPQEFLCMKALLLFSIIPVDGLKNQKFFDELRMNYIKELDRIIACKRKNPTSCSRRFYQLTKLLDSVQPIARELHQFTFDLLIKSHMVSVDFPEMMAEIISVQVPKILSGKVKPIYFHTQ

Legend:
[1] = molecular target: PTEN (phosphatase and tensin homolog deleted on chromosome ten), wild type, full length (Homo sapiens (Human)) (UniProt P60484); test: co-immunoprecipitation in CWR22 cells transfected with ARf
[2] = molecular target: Smad3 (full length, untagged) (human) (UniProt P84022); test: GST pull-down of in vitro translated 35S-labelled Smad3
[3] = molecular target: Smad4 (full length, untagged) (human) (UniProt Q13485); test: GST pull-down of in vitro translated 35S-labelled Smad4
[4] = molecular target: androgen receptor, wild type, full length (UniProt P10275); test: GST pull-down of 35S-labelled AR
[5] = molecular target: androgen receptor, wild type, full length (UniProt P10275); test: restates the GST pull-down of FIG. 21C
[6] = molecular target: androgen receptor, wild type, full length (UniProt P10275); test: GST pull-down of 35S-labelled full-length AR
[7] = molecular target: androgen receptor, wild type, full length (UniProt P10275); test: co-immunoprecipitation of endogenous Smad4 in PC3-AR2 cells

Substance: ARf (interaction domain within AR, aa 483-651) (from UniProt P10275 483-651) (peptide)
binding [1]: binds

Substance: GST-AR-LBD fusion protein (from UniProt P10275 655-920)
binding [2]: binds
binding [3]: binds

Substance: GST-PTEN-#2 (aa 107-252) (from UniProt P60484 107-252)
binding [4]: binds

Substance: GST-PTEN-PTP (PTEN aa 110-163) (from UniProt P60484 110-163)
binding [5]: binds
binding [4]: binds

Substance: Smad4 (full length, untagged) (from UniProt Q13485 1-552)
binding [7]: binds

Next, values leading:

binding [6]: binds
binding [4]: binds
Substance: GST-Smad3 fusion protein (from UniProt P08515 1-218; P84022 1-425)

binding [6]: binds
binding [4]: binds
Substance: GST-Smad4 fusion protein (from UniProt P08515 1-218; Q13485 1-552)
